Experimental data reported in patent EP1257648B2 (AMGEN INC., dated 2016).
These are yes or no findings as the source states them, for the method shown. Some entries that bind do so weakly or less than the wild type.

Target: T1, human OPGbp[143-317] (human, UniProt O14788 143-317)
T1 sequence (looked up): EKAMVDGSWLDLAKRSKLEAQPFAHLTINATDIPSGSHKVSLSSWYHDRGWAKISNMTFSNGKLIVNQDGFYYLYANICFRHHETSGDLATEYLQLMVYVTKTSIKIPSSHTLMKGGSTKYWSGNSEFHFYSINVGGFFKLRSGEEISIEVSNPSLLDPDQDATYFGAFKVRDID
Assay: phage ELISA on plated OPGbp[143-317]

B1: Fab "S" (Fab, V domains shown)
VH: EVQLLESGGGLVQPGRSLRLSCAASGFTFDDYAMHWVRQAPGKGLEWVSGISWNSGRIGYADSVKGRFTISRDNAKNSLYLQMNSLRPEDTAFYYCAKGGSTSARYSSGWYYWGQGTLVTVSS
VL: QSVLTQPPSVSVSPGQTATITCSGDALPKQYVYWYRQKPGQAPLLVIYEDSERPSGIPERFSGSSSGTEVTLSISGVQAEDEADYYCQSTDSSGTYVVFGGGTKLTVLS
- binding: binds
